# Reference: US20230151432A1, “KIF18A INHIBITORS FOR TREATMENT OF NEOPLASTIC DISEASES” (AMGEN INC., priority 2020, published 2023)
# For at least one compound, name, drawing or mass did not settle the structure. Some of these results come from one statement about several compounds together.
# Key:
# [1] = test system: panel of cell lines (HCC-1806, HCC-1937, BT-549, MDA-MB-157, MCF-7, CAL-51, MDA-MB-453, ZR-75-1, OVCAR-3, OVCAR-5); experiment: 96 h cell growth assay (Example 19); type: cell-based, human; conditions: CAL-51, MDA-MG-453 and OVCAR-5, 96 h
# Procedure: KIF18A inhibitor cancer cell line sensitivity profiles were determined for KIF18A inhibitor Compounds C9 and C11. Cells of various cancer cell lines were treated with DMSO or increasing concentrations of C9 or C11 for 96 h. The concentration-response profiles of some cancer cell lines (including, e.g., BT-549, OVCAR-3) for C11 were similar. […] Cancer cell lines CAL-51, MDA-MG-453 and OVCAR-5 were insensitive to C9 and C11.
# Cell growth assay. A panel of cell lines (HCC-1806, HCC-1937, BT-549, MDA-MB-157, MCF-7, CAL-51, MDA-MB-453, ZR-75-1, OVCAR-3, OVCAR-5) were seeded in 96-well plate at densities optimized for 96 h cell growth assay. The next day, cells were treated with DMSO or one of the following compounds: KIF18A Inhibitor Compounds C9 and C11, or palbociclib, with top concentration of 6 μM (19-point concentration range) using staggered dose method. After 96 h, cells were fixed, stained, imaged, and analyzed as described above. Valid nuclear object counts were determined for each well and Count POC value was computed using the following formula [Count POC=(valid nuclear object count in treated well)+(valid nuclear object count in DMSO treated wells)×100]. Concentration-response curve-fitting was performed by 4-parameter non-linear regression equation using GraphPad Prism 7.05. Mean Count EC50 value was computed for each cell line from two independent experiments run in duplicate. […] A mean Count EC50 value was computed across sensitive cell lines for each test agent.
# [2] = test system: panel of cancer cell lines including breast cancer cell lines, ovary cancer cell lines, and a prostate cancer cell line; experiment: 4-day image-based nuclear count assay (NCA), cancer cell line panel; parameters: species or system human; conditions: five Rb-proficient lines: CAL-51, ZR-75-1, MCF-7, OVCAR-5 (TP53 WT), MDA-MB-453 (TP53 NULL)
# Procedure: Eg5 motor inhibitor (Ispinesib) was used as a cytotoxic control. […] Cancer cell lines were seeded in a Corning 96-well Flat Clear Bottom Black Polystyrene plate (Corning, N.Y.) in 100 μL of appropriate complete media at the appropriate density and grown for 24 hours. In one set of experiments, in preparation for cell treatment, a 2× concentration of one of: […] The compound was added to the cells with a final volume of 200 μL in complete media containing 0.5% DMSO. After 4 days (96 hours) or 6 days (144 hours) of treatment, the cells were fixed by removing 100 μL of complete media from each well and replacing it with 100 μL of 2×formaldehyde (final 4%) and incubating the plates for 15 minutes at room temperature. After fixation, the cells were permeabilized and stained in 200 μL Wash Buffer (1% BSA, 0.2% Triton X-100, 1×PBS) containing 2 μg/mL Hoechst 33342 DNA dye. The plates were sealed and incubated for 1 hour at room temperature in the dark. Cells were stored at 4° C. in the dark until data acquisition. Imaging data was acquired on Cellomics ArrayScan VTI HCS Reader (SN03090745F, ThermoFisher Scientific) using the Target Activation V4 Assay protocol (Ve 6.6.0 (Build 8153) with a 10×objective, collected 16-fields per well). […] A Mean Count EC50 value (±SD) across all sensitive cell lines was determined for each test agent.
Compound,sensitivity in cell growth assay [1],sensitivity in nuclear count assay [2]
"CC(C)(C)NS(=O)(=O)c1cccc(NC(=O)c2ccc(S(=O)(=O)NC(C)(C)C)cc2N2CCC3(CC2)CC3)c1 [Compound C9, 4-(N-(tert-butyl)sulfamoyl)-N-(3-(N-(tert-butyl)sulfamoyl)phenyl)-2-(6-azaspiro[2.5]octan-6-yl)benzamide]","insensitive (If a maximal response of >50% was not reached at top concentration, cell lines were assigned Count EC50 value of 6 μM and were considered insensitive)",
"CC(C)(CO)Nc1ccc(C(=O)Nc2cccc(S(=O)(=O)C3CCCC3)c2)c(N2CCC3(CC2)CC3)n1 [Compound C11, N-(3-(cyclopentylsulfonyl)phenyl)-6-((1-hydroxy-2-methylpropan-2-yl)amino)-2-(6-azaspiro[2.5]octan-6-yl)nicotinamide]","insensitive (If a maximal response of >50% was not reached at top concentration, cell lines were assigned Count EC50 value of 6 μM and were considered insensitive)",
"CC(=O)c1c(C)c2cnc(Nc3ccc(N4CCNCC4)cn3)nc2n(C2CCCC2)c1=O [Palbociclib, reference compound]",sensitive,sensitive
